# In paper PMC6943125:
# These are yes or no findings as the source states them, for the method shown. In cells and extracts the contact can be indirect. Where a sequence is shown, tags or fusion partners need not be part of it.
# Biological target: T1, GST-DHX30 (human) (UniProt Q7L2E3)
# T1 sequence: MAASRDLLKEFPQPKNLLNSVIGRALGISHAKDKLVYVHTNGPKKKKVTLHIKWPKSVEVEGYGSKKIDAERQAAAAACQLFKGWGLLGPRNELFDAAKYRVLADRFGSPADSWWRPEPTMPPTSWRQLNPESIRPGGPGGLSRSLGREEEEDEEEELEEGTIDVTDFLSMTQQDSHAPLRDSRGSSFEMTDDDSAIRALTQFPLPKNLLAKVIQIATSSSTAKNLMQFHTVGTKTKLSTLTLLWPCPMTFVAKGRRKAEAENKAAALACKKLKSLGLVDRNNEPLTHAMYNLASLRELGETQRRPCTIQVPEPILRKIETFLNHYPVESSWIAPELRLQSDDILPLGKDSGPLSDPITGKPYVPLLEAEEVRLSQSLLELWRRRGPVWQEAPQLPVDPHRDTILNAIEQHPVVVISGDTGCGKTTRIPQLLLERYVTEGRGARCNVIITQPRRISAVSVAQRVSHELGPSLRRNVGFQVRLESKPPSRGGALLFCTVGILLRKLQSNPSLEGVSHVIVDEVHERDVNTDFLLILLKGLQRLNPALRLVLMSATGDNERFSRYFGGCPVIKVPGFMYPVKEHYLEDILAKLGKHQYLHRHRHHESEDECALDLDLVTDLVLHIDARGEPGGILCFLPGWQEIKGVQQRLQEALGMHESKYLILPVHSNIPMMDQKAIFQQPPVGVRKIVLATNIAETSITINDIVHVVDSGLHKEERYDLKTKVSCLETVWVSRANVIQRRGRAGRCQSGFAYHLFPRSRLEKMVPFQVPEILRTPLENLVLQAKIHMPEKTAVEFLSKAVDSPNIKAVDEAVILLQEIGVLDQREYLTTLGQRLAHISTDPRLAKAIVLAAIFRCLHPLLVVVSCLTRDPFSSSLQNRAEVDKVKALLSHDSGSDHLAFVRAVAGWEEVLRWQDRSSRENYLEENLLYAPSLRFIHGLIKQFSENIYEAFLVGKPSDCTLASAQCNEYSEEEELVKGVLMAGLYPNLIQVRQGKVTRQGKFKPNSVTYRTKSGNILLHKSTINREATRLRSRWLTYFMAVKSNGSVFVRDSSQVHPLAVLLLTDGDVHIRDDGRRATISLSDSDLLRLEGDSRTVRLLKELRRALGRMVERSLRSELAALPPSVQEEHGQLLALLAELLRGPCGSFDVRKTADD
# Experiment: pull-down
substance,measurement,value
HA (hemagglutinin) of Ud virus (influenza A virus (Ud virus)),binding,no binding
